No constants are given. Whether binding was seen depends on the method and setting. Binding seen in cells or lysates may run through a third protein. These calls come from enrichment with a bait or labelling near it, and not all partners need be listed.
Target: Sequestosome 1 (SQSTM1)/p62 (human (endogenous in A549)) (UniProt Q13501)
Assay: affinity purification with mass spectrometry

- binding: binds
Substance: RNF166 (from UniProt Q96A37 1-237)

Reference: article doi:10.1101/2024.06.29.601315
